Results from PubChem BioAssay AID743255 (National Center for Advancing Translational Sciences (NCATS), 2014).
Out of some 390,000 compounds screened, about 910 (0.23%) were called active. Inconclusive means that the source gave no clear call. Such entries were picked first, then a sample of the others. Calls follow the shape of the dose curve; as a rule, active = well fitted inhibition curve with a large enough effect; inconclusive = small, poorly fitted or top-dose-only effect; inactive = no such curve, though single readings can be large or run the other way. A potency beside an inconclusive call is a rough fit, not a confirmed value.

Amino acid sequences for entries named in this document (tags omitted). A change or cut given only in a name is not applied to a line headed by its entry.
UniProt O94782: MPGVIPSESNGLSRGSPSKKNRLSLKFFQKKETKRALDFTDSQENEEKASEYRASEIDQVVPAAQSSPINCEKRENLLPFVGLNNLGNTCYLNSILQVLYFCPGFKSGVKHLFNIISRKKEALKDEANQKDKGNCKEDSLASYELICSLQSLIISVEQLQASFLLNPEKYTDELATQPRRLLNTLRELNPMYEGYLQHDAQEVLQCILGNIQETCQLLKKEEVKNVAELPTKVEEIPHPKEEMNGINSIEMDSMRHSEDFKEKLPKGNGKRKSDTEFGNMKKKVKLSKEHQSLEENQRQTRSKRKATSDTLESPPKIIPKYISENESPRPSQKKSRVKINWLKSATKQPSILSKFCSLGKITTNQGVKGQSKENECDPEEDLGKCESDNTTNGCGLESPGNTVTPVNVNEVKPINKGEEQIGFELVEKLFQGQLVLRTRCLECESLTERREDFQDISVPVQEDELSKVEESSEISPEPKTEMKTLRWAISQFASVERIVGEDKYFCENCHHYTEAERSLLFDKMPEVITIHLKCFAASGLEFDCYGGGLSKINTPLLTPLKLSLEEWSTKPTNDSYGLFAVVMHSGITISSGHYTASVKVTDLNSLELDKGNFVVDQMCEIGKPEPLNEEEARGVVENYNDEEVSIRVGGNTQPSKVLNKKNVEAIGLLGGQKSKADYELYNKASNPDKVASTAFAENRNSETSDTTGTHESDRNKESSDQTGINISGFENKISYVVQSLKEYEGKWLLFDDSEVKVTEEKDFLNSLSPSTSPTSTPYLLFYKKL

biological target: Ubiquitin carboxyl-terminal hydrolase 1 (Homo sapiens) (UniProt O94782); test: Inhibitors of USP1/UAF1: Primary Screen; settings: recombinant USP1/UAF1, Ub-Rhodamine cleavage fluorescence; activity change, negative = inhibition: at 57.1 µM (top of the series); also: nearly all actives have a fitted effect of over 60% in size
How it was run: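 USP1/UAF1 complex at 1 nM was preincubated with compound for 15 min at room temperature, then Ub-Rho substrate (150nM final) was added. Fluorescence (480/540 nm) was read kinetically, 6 reads every 60 seconds.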
% is scaled to controls: 0 for no effect and ±100 for the full control effect; potency is read from the fitted curve at half-maximal effect.

Potency, inconclusive:
COc1ccc(NC(=O)c2nc[nH]c2C(=O)N(C)Cc2ccccc2)cc1 0.126 µM [inhibitor, full curve, poor fit]
Cc1ccccc1Cn1nnc2sc3c(c2c1=O)CCCC3 6.31 µM [inhibitor, full curve, poor fit]
CCOC(=O)c1c(NC(=O)Nc2ccc(F)cc2)sc(C(=O)N(C)C)c1C 7.94 µM [inhibitor, partial curve, poor fit]
Cc1cc(C)n(CCSCC(=O)O)n1 1 µM [inhibitor, partial curve]
O=C(Nc1nc(=O)n(C(=O)c2cccc(C(F)(F)F)c2)s1)c1ccccc1 44.7 µM [inhibitor, partial curve, poor fit]
O=C1[C@H]2[C@@H](c3ccc(Cl)cc3)N3C(=O)N(c4cccc(F)c4)C(=O)[C@@]3(Cc3ccc(Cl)cc3)[C@H]2C(=O)N1C1CCCCC1 50.1 µM [inhibitor, single point]
Cc1ccccc1C(=O)N=c1ccn(-c2nc3ccccc3nc2NS(=O)(=O)c2ccccc2)cc1 35.5 µM [inhibitor, single point]
NC(=O)c1ncn([C@@H]2O[C@H](CNC(=O)[C@H](N)CSCc3ccccc3)[C@@H](O)[C@H]2O)n1 50.1 µM [inhibitor, partial curve, poor fit]
COC(=O)Cc1cc(=O)n(-c2nc3ccccc3s2)[nH]1 7.08 µM [inhibitor, full curve]
O=C(NCc1ccc(C(F)(F)F)cc1)C12CN(Cc3ccccc3)CC1C(c1cccc([N+](=O)[O-])c1)=NO2 (stereo unspecified) 70.8 µM [inhibitor, partial curve, poor fit]
N#Cc1ccc(CC(=O)c2ccccc2)[nH]c1=O 11.2 µM [inhibitor, partial curve]
COc1cccc(CNC(=O)N2CCN(S(=O)(=O)c3ccc(C)cc3)CC2)c1 0.316 µM [inhibitor, full curve, poor fit]
Cc1ccc(NC(=O)c2oc3ccc(S(=O)(=O)N4CCCCC4)cc3c2C)c(C)c1 3.55 µM [inhibitor, partial curve]
CCCCCCc1cc2cc(-c3nnc(-c4cccc(Cl)c4)o3)c(=O)oc2cc1O 2.82 µM [inhibitor, full curve, poor fit]
CCN(CC(=O)Nc1c(F)cccc1F)C(=O)c1cc([N+](=O)[O-])ccc1N1CCOCC1 6.31 µM [inhibitor, full curve, poor fit]
COC(=O)CCCC1=CC2=C(c3ccccc3)C(=O)C(C)(OC(=O)C3CCCC3)C(=O)C2=CN1CCc1ccccn1 (stereo unspecified) 14.1 µM [inhibitor, partial curve]
CN(C)c1ccc(/C=C2\SC(N3CCCCC3)=NC2=O)cc1 35.5 µM [inhibitor, partial curve]
COc1ccc2[nH]c(=O)c(CN(C3CCCCC3)C(c3nnnn3Cc3ccco3)C(C)C)cc2c1 (stereo unspecified) 44.7 µM [inhibitor, partial curve, poor fit]
C[C@@H]1O[C@@H](O[C@H]2[C@H](Oc3cc(O)c4c(c3)OC(c3ccc(O)cc3)CC4=O)O[C@H](CO)[C@@H](O)[C@@H]2O)[C@H](O)[C@H](O)[C@H]1O (stereo partly specified) 0.0708 µM [inhibitor, full curve, poor fit]
CCOC(=O)CNC(=O)c1cc2c(=O)oc3ccccc3c2s1 0.251 µM [inhibitor, full curve, poor fit]
COc1ccc(NC(=O)COC(=O)c2ccc([N+](=O)[O-])o2)cc1Cl 28.2 µM [inhibitor, partial curve]
CCCC(=O)Nc1cc(C)cn(Cc2c(F)cccc2Cl)c1=O 6.31 µM [inhibitor, single point]
Cc1c(C)n(Cc2ccccc2)c2ccc(C(=O)NCC(C)c3ccccc3)cc12 (stereo unspecified) 44.7 µM [inhibitor, partial curve, poor fit]
CC(Sc1ncc(C(F)(F)F)cc1Cl)C(=O)NCC1CCCO1 (stereo unspecified) 2.82 µM [inhibitor, full curve]
COc1ccc(C(=O)OCCc2sc[n+](CC(=O)c3ccccc3)c2C)cc1 7.94 µM [inhibitor, single point]
COc1ccc(OC)c(CCNC(=O)c2c(C)oc3ncn(CC(C)C)c(=O)c23)c1 44.7 µM [inhibitor, partial curve]
CN(C)c1ccc(C=NNC(=S)Nc2ccc(F)cc2)cc1 141 µM [inhibitor, partial curve, poor fit]
COC(=O)c1ccc(-c2ccc(/C=N/NC(=O)Cc3nnc(N)s3)o2)cc1 0.631 µM [inhibitor, full curve, poor fit]
COc1ccc(-c2[nH]ncc2CN2CCCC(C(=O)c3cccc(OC)c3)C2)cc1 (stereo unspecified) 0.708 µM [inhibitor, full curve, poor fit]
CC(C)Cc1cc(C(=O)NCc2ccc(Cl)cc2)no1 0.447 µM [inhibitor, full curve, poor fit]
CCC(Oc1nc2ccccc2nc1-c1ccccc1NC(C)=O)C(=O)c1ccccc1 (stereo unspecified) 39.8 µM [inhibitor, single point]
CC(=O)c1cccc(NC(=O)c2nc(-c3ccccc3)oc2C)c1 20 µM [inhibitor, partial curve, poor fit]
Cc1cccc(NC(=O)Cn2cc(S(=O)(=O)N3CCCC3)c(S(=O)(=O)N3CCCC3)c2)c1C 44.7 µM [inhibitor, partial curve, poor fit]
COc1cc(C(=O)OCC(=O)NC2CCCCC2)cc(OC)c1OC 3.98 µM [inhibitor, full curve, poor fit]
CCN(CC)c1ccc(C(=O)NCc2nc3cccnc3n2Cc2ccc(C)cc2)cc1 35.5 µM [inhibitor, partial curve]
COc1cccc2sc3ccc(C#CC4(O)CCCCC4)cc3c(=O)c12 7.94 µM [inhibitor, partial curve, poor fit]
CCCOC(=O)CCCN1C(=O)/C(=C2\SC(=S)N(CCCC(=O)OCCC)C2=O)SC1=S 44.7 µM [inhibitor, partial curve, poor fit]
Cn1nnc2cc(NC(=O)N3CC4(C)CC3CC(C)(C)C4)ccc21 (stereo unspecified) 7.08 µM [inhibitor, partial curve, poor fit]
CC1(OCON)CCCc2ccccc21 (stereo unspecified) 39.8 µM [inhibitor, partial curve, poor fit]
CCOc1ccc(C2C(C(=O)Nc3ccccc3)=C(C)N=c3s/c(=C/c4cccc(OCC(=O)O)c4)c(=O)n32)cc1 (stereo unspecified) 5.62 µM [inhibitor, single point]
COC(=O)CCC(=O)OC1(C)C(=O)C2=CN(Cc3ccccc3)C(c3ccc(OC)cc3)=CC2=C(Br)C1=O (stereo unspecified) 39.8 µM [inhibitor, partial curve]
CCn1c(SCC(N)=O)nc2ccccc2c1=O 7.94 µM [inhibitor, partial curve]
CC(=O)c1c(COC(=O)c2ccc(F)cc2)nc2ccccc2[n+]1[O-] 44.7 µM [inhibitor, partial curve, poor fit]
COc1ccc(-c2nsc(SCC(=O)NCC3CCCO3)n2)cc1 (stereo unspecified) 17.8 µM [inhibitor, partial curve, poor fit]
Cc1cc(NC2CCCCC2)nc(-c2ccccc2O)n1 39.8 µM [inhibitor, partial curve]
COc1ccc(NC(=O)c2c(NCc3cccc(F)c3)sc3c2CCC3)c(OC)c1 0.224 µM [inhibitor, full curve]
Cc1cccc(NC(=O)c2cnc3sc(N4CCCC4)nn3c2=O)c1C 2.24 µM [inhibitor, partial curve]

Looked up one by one from the entries so far:
Potency, inconclusive:
Cc1cccc(NC(=O)c2cnc3sc(N4CCCC4)nn3c2=O)c1C 2.24 µM [inhibitor, partial curve]
CC(=O)c1c(COC(=O)c2ccc(F)cc2)nc2ccccc2[n+]1[O-] 44.7 µM [inhibitor, partial curve, poor fit]
COc1cc(C(=O)OCC(=O)NC2CCCCC2)cc(OC)c1OC 3.98 µM [inhibitor, full curve, poor fit]
CCOC(=O)c1c(NC(=O)Nc2ccc(F)cc2)sc(C(=O)N(C)C)c1C 7.94 µM [inhibitor, partial curve, poor fit]

Following part.

Activity change, negative = inhibition, inconclusive:
CCOC(=O)c1sc2nc(NC(=O)C(C)(C)C)sc2c1C -31.6% [inhibitor]

Activity change, negative = inhibition, inactive:
CC(C)CNC(=S)NNC(=O)c1ccco1 -9.48%
CC1=NN(c2ccccc2)C(=O)/C1=C/c1cccs1 -27.9%
Oc1ccccc1-c1nc(NCc2ccccc2)c2ccccc2n1 0.21%
CCCSC1=N/C(=C\C=C\c2ccco2)C(=O)S1 -15.8%
Cc1ccc(NN2C(=O)C=C(c3ccccc3)C2=O)cc1 -21.3%
O=S(=O)(c1ccc2nc(-c3ccccc3)[nH]c2c1)N1CCN(c2ccc(Cl)cc2)CC1 -7.42%
CCOc1ccc(CCNC(=O)c2ccc3c(c2)N(Cc2ccc(F)cc2)CCS3)cc1 -1.83%
Cc1cc(=O)cc(C)n1-c1ccccc1N -6.76%
COc1ccc(Cc2nnc(SCC(=O)Nc3cc(Cl)ccc3C)[nH]c2=O)cc1 -2.34%
CCOCCn1c(SCc2ccc(C)cc2)nc2c1c(=O)[nH]c(=O)n2C 6.17%
O=C(CC1C[C@H](C(=O)N2CCOCC2)[C@@]2(CCC3CCCC3)c3[nH]c4ccccc4c3CCN2C1=O)NCc1cccc(C(F)(F)F)c1 (stereo partly specified) -21.6%
CC(=O)N1CCc2[nH]c3ccccc3c2C1 -2.47%
COc1ccc2nc(NC(=O)CSc3ccccc3)sc2c1 -12.1%
